Patent publication US20140045764A1, “NEUROPROTECTIVE PEPTIDES” (Neurim Pharmaceuticals (1991) Ltd., priority 2012, published 2014)
Not every detail of the peptide structures is certain; ends, links or a residue may be inferred.

How the values were obtained:
[1] = tested on: N2A mouse neuroblastoma cells; assay: Protection of N2A cells from 6-OHDA (viability, alamar blue); format: cell-based
Protocol: All peptides were synthesized by LifeTein (South Pleinfield, N.J., USA) at >95% purity. N2A mouse neuroblastoma and SK-N-SH human neuroblastoma (ATCC) were maintained in Dulbecco's modified Eagle's medium supplemented with 10% fetal calf serum, L-Glut and 1% Penicillin-Streptomycin (Beit Haemek, Israel). Cells were maintained in an incubator at 37° C. with 5% CO2. SK-N-SH cells were treated with 3 μM RA (Sigma-Aldrich) for 5 days prior to each experiment to allow the cells to differentiate towards neuronal cells. […] The intensity of the water soluble dye is proportional to the number of metabolic active cells. […] The viability assay was followed by caspase 3 assay (EnzChek Caspase3 Assay kit, Invitrogen, Carlsbad, Calif., USA) according to the manufacture's instructions
All methods are the same as in Example 1 above. Peptides and 6-hydroxydopamine were purchased from Sigma-Aldrich (St. Lewis, USA).
These peptides were screened for their protective effect on 6-hydroxydopamine (6-OHDA) treated N2A cells at 1 pM concentration. 6-OHDA is a dopamine analogue that is commonly used in model systems to mimic Parkinson's disease in vitro and in vivo, 6-OHDA induces apoptosis through release of reactive oxygen species (ROS) and by a possible direct effect on the mitochondrial respiratory chain. […] The protective effect of some of the peptides was tested in a wide dose range. […]

[2] = tested on: Aβ(1-42) microinjection rat model; assay: Aβ(1-42) microinjection rat model, SC peptide, novel object recognition; format: in vivo, Sprague Dawley rats; settings: 1 mg/kg SC daily 21 days
[3] = tested on: Aβ(1-42) microinjection rat model; assay: Aβ(1-42) microinjection rat model, IH/ICV peptide, novel object recognition; format: in vivo, Sprague Dawley rats; settings: 100 ng/rat IH/ICV, 21 days after Aβ injection, p<0.01 versus vehicle
Protocol: Aβ(1-42) (Sigma-Aldrich, USA), was dissolved in filtered PBS at the concentration of 6 μg/μl, and the solution kept at 37° C. for 2 days before use. One microliter of the solution was injected by means of a microsyringe into the right hippocampus under sodium pentobarbital (55 mg/kg i.p.) anesthesia at the stereotaxic coordinates: AP=−3.6, ML=2.0, from Bregma and DV=3.0 from the skull. Control rats were injected with 1 μl of PBS. In the IH/ICV study, 1 μl of the peptide or PBS was also injected into the right hippocampus at the same stereotaxic coordinates.
For ICV injection, a microinjection cannula was planted into the lateral cerebral ventricle according to the following stereotaxic coordinates: AP=−1, ML=1.6, DV=3.8. […]
The training apparatus was a black Plexiglas box (50×50×40 cm) placed in a sound-attenuating cabinet which was located in a brightly lit and isolated room. […] During the training trial, the rat was placed in the box and allowed to explore two identical objects for 10 min and the total time spent exploring both objects was recorded. […] The rat was placed in the box for 3 min and the time spent exploring each object and the total time spent exploring both objects were recorded. The discrimination index used to assess memory was calculated as the difference in time exploring the novel and familiar object, expressed as the ratio of the total time spent exploring both objects. […]

[4] = tested on: Aβ(1-42) microinjection rat model; assay: Aβ(1-42) microinjection rat model, SC peptide, Morris water maze; format: in vivo, Sprague Dawley rats; settings: 1 mg/kg SC daily 21 days

Row | Compound | activity in protecting N2A from 6-OHDA ([1]; 30 or 40 μM 6-OHDA 22 hrs, peptide 10 fM and 1 μM) | optimal protective dose ([1]; 30 μM 6-OHDA, N-acetylated and C-amidated peptide, wide dose range) | behavior in NOR memory assay [2] | discrimination index, novel object recognition [3] | behavior in Morris water maze (MWM) memory assay [4] | mean latency across 4 training sessions in MWM compared with the vehicle group ([4]; p<0.001 in days 2, 3 and 4) | time spent in the target quadrant on test session compared with the vehicle group ([4]; p<0.05)
1 | CC(=O)N1CCC[C@@H]1C(=O)N[C@H](Cc1ccc(O)cc1)C(=O)N[C@H](Cc1c[nH]cn1)C(=O)N[C@H](CO)C(=O)N[C@@H](C(=O)N[C@H](Cc1ccc(O)cc1)C(=O)NCC(=O)N[C@H](CCC(=O)O)C(N)=O)[C@H](C)O (relative stereo) [26-RI, *P*Y*H*S*T*Y*G*E] | retain its neuroprotection activity |  |  |  |  |  | 
2 | Ac-EGYTSHYP-NH2 (N-terminus and C-terminus assumed) [V10A1_N+4, EGYTSHYP] |  | around the fM concentration | improved significantly | increased significantly | improved significantly | lower levels of the mean latency | higher levels of the time spent in the target quadrant
